In publication PMC12756916:
No constants are given. Whether binding was seen depends on the method and setting. Some binding calls cover weakened binding; strength is not graded here.

What was measured:
[1] = molecular target: block V of the repeats-in-toxins (RTX) domain of the adenylate cyclase (CyaA) protein from Bordetella pertussis (Bordetella pertussis) (UniProt P0DKX7); assay: anomalous small-angle X-ray scattering (ASAXS); condensed aggregates from 20 uM RTX peptide, pH 5.6, with 0.5 mM Tb3+, 0.5 mM Lu3+ or an equimolar mixture of both (500 uM total); fitted with a uniform cylinder model; both purified
[2] = molecular target: block V of the repeats-in-toxins (RTX) domain of the adenylate cyclase (CyaA) protein from Bordetella pertussis (Bordetella pertussis) (UniProt P0DKX7); assay: dynamic light scattering; 1 uM RTX peptide in 20 mM glycine, 20 mM potassium acetate, 50 mM KCl, pH 5.6, 25 C; without multivalent cations, with saturating Ca2+ or with Tb3+; oligomeric state inferred from the hydrodynamic diameter; both purified

Substance: block V of the repeats-in-toxins (RTX) domain of the adenylate cyclase (CyaA) protein from Bordetella pertussis (from UniProt P0DKX7 1529-1681) (domain or fragment)
- binding [1]: binds
- binding [2]: binds
